Entries after “also recorded” stand apart in the source; their conditions may differ. At least one structure is not confirmed: it was looked up by name or label, or the drawing left a doubt.
Legend:
[1] = test system: BJ-derived cell lines; test: GSH depletion assay in BJ-derived cell lines; assay type: cell-based, human; details: erastin, 12 hours
Procedure: Bar graph: mean+s.d.; n=3. *, P<0.05.
2 million cells were seeded on 10 cm dishes. The next day, cells were treated with compounds to induce GSH depletion followed by harvesting to determine cell number. Two million live cells from each sample were transferred to new tubes, and centrifuged at 1,000 rpm at 4° C. for 5 minutes. The cell pellet was resuspended in 1 mL of PB buffer (10 mM sodium phosphate buffer, 1 mM EDTA, pH 7) and sonicated using 60 Joule energy. The lysate was centrifuged at 13,200 rpm at 4° C. for 10 minutes, and then the cleared lysate was used to determine the amount of GSH in the sample. The QuantiChrome glutathione assay kit (BioAssay Systems, cat # DIGT-250) was used and the product instructions were followed to determine GSH level.

[2] = test system: intracellular calcium; test: Intracellular calcium, Fluo-4 flow cytometry; assay type: cell-based; details: after erastin treatment
[3] = test system: GFP-ALOX5; test: GFP-ALOX5 translocation in HT-1080 cells; assay type: cell-based, human
Procedure: HT-1080 cells stably expressing GFPALOX5 were treated with the indicated compounds under the conditions detailed in FIG. 13b. […] Note that digioxin (DIG) did translocate GFP-ALOX5 to the perinuclear membrane region in a small portion of the cell population (arrow). Digioxin is known to increase cellular calcium concentration that can translocate GFP-ALOX5, similarly to ionomycin. Scale bars, 60 μm.
A cDNA of ALOX5 (GeneBank ID: BC130332.1) was cloned into a pBabe-puro vector to express GFP fused ALOX5 (N-terminal GFP fusion) in cells. The plasmid was transfected into PLAT-GP cells (Cell Biolabs Inc., cat # RV-103, San Diego, Calif.) along with a pVSV-G helper plasmid to produce retrovirus harboring the expression plasmid. 0.2 million target cells (BJeH, BJeHLT, BJeLR or HT-1080 cells) were seeded in 10 cm tissue culture dishes and incubated in the tissue culture incubator for 1 day. A frozen stock of retrovirus solution was thawed at 37° C. for 2 minutes, and polybrene (Sigma, cat. # H9268) was added at a final concentration of 8 μg/mL. Culture medium was replaced with virus/polybrene mix and the culture dish was incubated for two hours with rocking every 30 minutes. […]
Next, GFP-ALOX5-expressing HT-1080 cells were treated with these non-RSL and RSL compounds and changes in the location of GFP-ALOX5 were monitored as a measure of ALOX protein activation. […]

[4] = test system: GFP-ALOX5; test: GFP-ALOX5 translocation in BJ-derived cell lines; assay type: cell-based, human
Procedure: A cDNA of ALOX5 (GeneBank ID: BC130332.1) was cloned into a pBabe-puro vector to express GFP fused ALOX5 (N-terminal GFP fusion) in cells. The plasmid was transfected into PLAT-GP cells (Cell Biolabs Inc., cat # RV-103, San Diego, Calif.) along with a pVSV-G helper plasmid to produce retrovirus harboring the expression plasmid. 0.2 million target cells (BJeH, BJeHLT, BJeLR or HT-1080 cells) were seeded in 10 cm tissue culture dishes and incubated in the tissue culture incubator for 1 day. A frozen stock of retrovirus solution was thawed at 37° C. for 2 minutes, and polybrene (Sigma, cat. # H9268) was added at a final concentration of 8 μg/mL. Culture medium was replaced with virus/polybrene mix and the culture dish was incubated for two hours with rocking every 30 minutes. After 2 hours, 10 mL of growth media was added to culture dish, and the culture was incubated further for 2 days. Cell lines stably expressing GFP-ALOX5 protein were selected using 1.5 μg/mL puromycin and used for the GFP-ALOX5 translocation assay.
ALOX5 is one of the six human ALOX genes and plays a critical role in leukotriene synthesis. In the basal state, the ALOX5 protein remains in the nucleus; however, upon activation, it translocates to the nuclear membrane (Chen et al., 2001). […] Second, calcium chelators were not effective in suppressing erastin-induced cell death (Wolpaw et al., 2011).

[5] = test system: HT-1080 tumor; test: HT-1080 xenograft in athymic nude mice; assay type: in vivo, mouse; details: HT-1080 cells, 40 mg/kg subcutaneous, vs vehicle
[6] = test system: HT-1080 cells; test: GSH depletion assay in HT-1080 cells; assay type: cell-based, human; details: three cell lines, Ellman's reagent
[7] = test system: U-2 OS cells; test: U-2 OS cell viability (alamar blue) with TBHP or NAC; assay type: cell-based
[8] = test system: HT-1080 cells; test: Metabolite profiling (LC-MS/MS) upon erastin treatment; assay type: cell-based, human
Procedure: 2 million HT-1080 cells were seeded in 10 cm culture dishes. […] 4 mL of cold 80% methanol was added to the cell monolayer to extract polar metabolites using a cell scraper. The cell lysate/methanol mixture was transferred to a 15 mL tube and centrifuged at 2,000×g at 4° C. for 10 minutes to pellet debris and proteins. The supernatant was transferred to a new tube and stored at −80° C. for liquid chromatography-mass spectrometry/mass spectrometry (LC-MS/MS) analysis. For lipid extract preparation, 3 mL of cold 100% isopropanol was added to the cell monolayer to scrape out cells. The resulting cell lysate/isopropanol mixture was transferred to a new 15 mL tube and centrifuged at 2,000×g at 4° C. for 10 minutes. The cleared supernatant was transferred to a new tube and stored at −20° C. for LC-MS/MS analysis.
The metabolite extract was subjected to LC-MS/MS analysis to determine the quantity of each metabolite in each sample.

[9] = test system: BJeLR cells; test: Lipid peroxide detection using BODIPY-C11 in BJ-derived cells; assay type: cell-based, human; details: flow cytometry
[10] = test system: HT-1080 cells; test: Cell death rescue by ALOX and COX inhibitors in HT-1080 cells; assay type: cell-based, human; details: inhibitor concentrations of Table 2
Procedure: HT-1080 cells were seeded in 384-well plates, treated with the indicated amount of compounds with or without 10 μM of BAI or 50 μM of ZIL for 24 hours. The percent growth inhibition was determined using alamar blue.
Lethal compounds were added to HT-1080 cells in the presence or absence of ALOX or COX inhibitors in a 2-fold dilution series. The concentrations of the inhibitors are listed along with vendor information in Table 2. Cell viability was determined using alamar blue and percent growth inhibition calculated as described above.

## CCOc1ccccc1-n1c(C(C)N2CCN(C(=O)COc3ccc(Cl)cc3)CC2)nc2ccccc2c1=O (stereo not drawn) [erastin]
[1]
  GSH depletion in the 4 BJ cell lines: depleted of GSH to a similar low level
[2]
  intracellular calcium (Fluo-4): did not show any increase in calcium
[3]
  GFP-ALOX5 translocation to the nuclear membrane: the same translocation event
[4]
  GFP-ALOX5 translocation to the nuclear membrane: only in BJeLR cells (harboring HRAS^G12V) was GFP-ALOX5 translocated to the nuclear membrane
[5]
  tumor growth: not able to inhibit tumor growth
[6]
  GSH-depleting effect: dose-dependent, GSH-depleting effect
[7]
  sensitivity to TBHP-induced cell death in the presence of erastin: made cells more sensitive to TBHP-induced cell death
[8]
  level of lysophosphatidyl choline (lyso-PC): increased
  reduced glutathione (GSH) and oxidized glutathione (GSSG) level: depleted significantly
[9]
  lipid peroxide generation (BODIPY-C11 fluorescence): selectively generated lipid peroxides in BJeLR cells

## CC1=C(C)C(=O)C(CCCCC#CCCCC#CCO)=C(C)C1=O [AA-861]
[10]
  suppression of erastin-induced cell death: strongly suppressed erastin-induced cell death

## CC(C)Oc1ccc(CN2CCNCC2)cc1-n1c(CN2CCN(C(=O)COc3ccc(Cl)cc3)CC2)nc2ccccc2c1=O [PE, 2-((4-(2-(4-chlorophenoxy)ethanoyl)piperazin-1-yl)methyl)-3-(2-isopropoxy-5-(piperazin-1-ylmethyl)phenyl)quinazolin-4(3H)-one]
[5]; 40 mg/kg
  tumor growth: improved efficacy over erastinin (ERA); also recorded: significant delay in tumor growth
